Results as given in the supplement of paper PMC10849652.
This is one part of the list.

Chains of the proteins cited; added tags and fusions are not shown. Lines headed by an entry give the natural chain unless they say otherwise; changes in a name come on top.
UniProt P11309, whole entry, looked up: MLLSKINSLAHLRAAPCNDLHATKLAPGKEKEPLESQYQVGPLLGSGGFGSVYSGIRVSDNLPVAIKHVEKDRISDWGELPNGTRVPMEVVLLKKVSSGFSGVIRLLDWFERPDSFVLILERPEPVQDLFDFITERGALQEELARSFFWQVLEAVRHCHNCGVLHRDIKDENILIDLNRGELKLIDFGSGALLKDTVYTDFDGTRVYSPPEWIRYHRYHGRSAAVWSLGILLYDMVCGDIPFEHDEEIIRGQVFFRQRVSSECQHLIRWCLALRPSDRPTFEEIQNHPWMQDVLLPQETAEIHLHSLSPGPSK
UniProt Q14442: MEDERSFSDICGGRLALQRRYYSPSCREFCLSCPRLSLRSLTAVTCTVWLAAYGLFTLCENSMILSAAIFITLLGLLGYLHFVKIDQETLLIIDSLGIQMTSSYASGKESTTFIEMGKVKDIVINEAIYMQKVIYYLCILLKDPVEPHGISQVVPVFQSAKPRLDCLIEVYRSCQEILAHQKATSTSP
UniProt P48736: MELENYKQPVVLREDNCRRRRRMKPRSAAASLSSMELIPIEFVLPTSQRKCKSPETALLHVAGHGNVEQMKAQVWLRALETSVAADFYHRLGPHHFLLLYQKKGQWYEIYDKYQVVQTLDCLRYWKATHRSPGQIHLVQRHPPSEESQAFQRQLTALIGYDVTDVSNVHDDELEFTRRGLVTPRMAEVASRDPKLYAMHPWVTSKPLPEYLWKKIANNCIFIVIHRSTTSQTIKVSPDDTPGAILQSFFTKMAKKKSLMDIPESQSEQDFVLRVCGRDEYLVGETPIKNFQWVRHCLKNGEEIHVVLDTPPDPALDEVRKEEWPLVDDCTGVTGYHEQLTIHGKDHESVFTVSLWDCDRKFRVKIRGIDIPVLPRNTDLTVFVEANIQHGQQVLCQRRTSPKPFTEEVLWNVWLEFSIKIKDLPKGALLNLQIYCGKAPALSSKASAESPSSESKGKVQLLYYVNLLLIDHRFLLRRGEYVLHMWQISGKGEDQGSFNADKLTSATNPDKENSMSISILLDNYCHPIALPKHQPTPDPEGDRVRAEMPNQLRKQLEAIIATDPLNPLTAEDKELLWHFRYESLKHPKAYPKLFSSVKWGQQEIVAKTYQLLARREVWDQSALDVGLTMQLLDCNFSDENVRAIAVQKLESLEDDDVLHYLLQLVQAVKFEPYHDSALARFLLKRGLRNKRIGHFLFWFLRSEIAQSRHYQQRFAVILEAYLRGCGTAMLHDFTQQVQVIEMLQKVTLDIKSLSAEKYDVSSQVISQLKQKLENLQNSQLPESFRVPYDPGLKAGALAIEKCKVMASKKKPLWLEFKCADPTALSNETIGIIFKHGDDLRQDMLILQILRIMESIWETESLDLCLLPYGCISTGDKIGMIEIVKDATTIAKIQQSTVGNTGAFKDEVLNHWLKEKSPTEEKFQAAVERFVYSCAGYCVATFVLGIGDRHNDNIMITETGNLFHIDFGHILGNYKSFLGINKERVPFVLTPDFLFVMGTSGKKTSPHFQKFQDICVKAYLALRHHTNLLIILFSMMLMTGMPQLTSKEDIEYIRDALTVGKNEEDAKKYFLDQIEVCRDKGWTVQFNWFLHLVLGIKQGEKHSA
UniProt O60331: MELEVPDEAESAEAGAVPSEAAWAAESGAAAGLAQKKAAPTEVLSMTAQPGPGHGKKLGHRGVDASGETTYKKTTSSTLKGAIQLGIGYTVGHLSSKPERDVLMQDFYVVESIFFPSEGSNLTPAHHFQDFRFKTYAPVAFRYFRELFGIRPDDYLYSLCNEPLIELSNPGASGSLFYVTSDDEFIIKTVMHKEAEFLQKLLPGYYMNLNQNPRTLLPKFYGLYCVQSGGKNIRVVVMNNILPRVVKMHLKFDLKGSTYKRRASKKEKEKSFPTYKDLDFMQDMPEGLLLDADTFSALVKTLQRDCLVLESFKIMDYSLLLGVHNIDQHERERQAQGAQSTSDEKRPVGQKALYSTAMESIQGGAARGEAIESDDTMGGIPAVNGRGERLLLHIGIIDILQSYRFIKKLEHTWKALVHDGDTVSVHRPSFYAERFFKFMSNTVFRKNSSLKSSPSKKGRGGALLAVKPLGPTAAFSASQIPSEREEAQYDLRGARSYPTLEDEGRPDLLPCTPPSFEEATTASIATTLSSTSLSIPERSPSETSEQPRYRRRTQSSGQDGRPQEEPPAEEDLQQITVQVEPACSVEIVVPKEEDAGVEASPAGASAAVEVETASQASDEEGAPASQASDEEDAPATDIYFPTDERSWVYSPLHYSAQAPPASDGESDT
UniProt Q8N4B1: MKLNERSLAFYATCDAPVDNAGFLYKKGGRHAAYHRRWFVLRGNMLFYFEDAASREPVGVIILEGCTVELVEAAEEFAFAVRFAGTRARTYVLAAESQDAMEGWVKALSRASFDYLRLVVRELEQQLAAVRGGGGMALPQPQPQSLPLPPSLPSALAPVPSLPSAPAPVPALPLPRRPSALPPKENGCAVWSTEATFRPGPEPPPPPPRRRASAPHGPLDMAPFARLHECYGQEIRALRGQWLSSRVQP
UniProt Q8TCD6: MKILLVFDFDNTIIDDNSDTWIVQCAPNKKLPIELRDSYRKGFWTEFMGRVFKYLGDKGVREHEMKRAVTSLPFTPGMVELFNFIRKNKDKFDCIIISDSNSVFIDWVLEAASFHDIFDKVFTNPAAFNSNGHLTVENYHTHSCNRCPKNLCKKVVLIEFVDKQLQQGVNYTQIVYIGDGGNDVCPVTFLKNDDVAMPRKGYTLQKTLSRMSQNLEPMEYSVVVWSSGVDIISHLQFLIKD

Experiments:
Assay in all cases: log2 fold change, soluble protein after heating vs DMSO (PISA); higher = thermal stabilisation; K562 cells, 10 uM, 30 min; active = over 0.2 and 3.5 SD of the protein, either way, in both replicates (recomputed)
[1] = compound: CC1=CC=C(C=C1)SC2=C3C=C(SC3=CN=C2)C(=O)N
In short: (§1)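 K562 cells at 2×10^6 cells/mL were treated for 30 min with 10 μM compound, and aliquots were heated for 3 min over 48°C-58°C before pooling. Extraction used PBS with 0.5% NP-40 at 4°C, and soluble protein was the supernatant after 21,000xg for 90 min, measured by TMTpro 16plex LC-MS/MS with channel sums equalised. Thermal stability values, relative to control samples and from duplicates, are log2 fold changes.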

[2] = compound: CCCS(=O)(=O)Nc1ccc(F)c(C(=O)c2c[nH]c3ncc(-c4ccc(Cl)cc4)cc23)c1F [vemurafenib]
In short: as §1

[3] = compound: CCCS(=O)(=O)Nc1ccc(F)c(C(=O)c2c[nH]c3ncc(Cl)cc23)c1F
In short: as §1

[4] = compound: CCN(CCCOc1ccc2c(Nc3cc(CC(=O)Nc4cccc(F)c4)[nH]n3)ncnc2c1)CCOP(=O)(O)O [barasertib]
In short: as §1

[5] = compound: CCCc1cc(C)[nH]c(=O)c1CNC(=O)c1cc(-c2ccnc(N3CCN(C)CC3)c2)cc2c1cnn2C(C)C
In short: as §1

[6] = compound: CC1=C(C=C(C=C1)NC(=O)C2=CC(=CC=C2)N(C)C)NC(=O)C3=CC=C(C=C3)O
In short: as §1

[7] = compound: CC1=NC(=CC=C1)C2=C(N=C(N2)C(C)(C)C)C3=CC4=NC=CN=C4C=C3
In short: as §1

[8] = compound: CCCCN(Cc1ccc(C(=O)NO)cc1)C(=O)Nc1ccccc1 [Nexturastat A]
In short: as §1

[9] = compound: CCN(CC)Cc1ccc2cc(COC(=O)Nc3ccc(C(=O)NO)cc3)ccc2c1 [givinostat]
In short: as §1

[10] = compound: CC1=C(C=C(C=C1)NC(=O)C2=CC(=CC=C2)C(C)(C)C#N)NC3=CC4=C(C=C3)N=CN(C4=O)C
In short: as §1

Measured: log2 fold change

PKLR (UniProt F8W6W2)
inactive: [1] -0.529 | [2] -0.229 | [3] -0.317 | [4] -0.07

PIM1 isoform 2 (UniProt P11309)
inactive: [5] -0.566

PIGH (UniProt Q14442)
inactive: [6] 0.001 | [1] 0.027 | [7] 0 | [8] 0.141 | [2] 0 | [3] -0.025 | [5] -0.069 | [9] -0.011 | [4] -0.219

PIK3CG (UniProt P48736)
inactive: [10] 0.218 | [7] -0.065 | [8] 0.089 | [9] 0.209

PIP5K1C isoform 3 (UniProt O60331)
inactive: [10] -0.043 | [8] 0.189 | [9] 0.112 | [4] 0.073

PIGM (UniProt Q9H3S5)
inactive: [10] 0.075 | [7] -0.052 | [2] -0.054 | [9] 0.1 | [4] 0.089

PHETA1 isoform 4 (UniProt Q8N4B1)
inactive: [1] 0.02 | [3] 0

PGD (UniProt K7EM49)
inactive: [6] 0.141 | [1] -0.203 | [7] -0.132 | [8] 0.306 | [2] -0.028 | [3] -0.102 | [4] -0.004

PHOSPHO2 (UniProt Q8TCD6)
inactive: [6] -0.093 | [7] 0.039 | [2] 0.167 | [5] 0.01 | [9] -0.042 | [4] -0.024

Copied from the listing (two entries):
PIP5K1C isoform 3 (UniProt O60331)
inactive: [10] -0.043 | [8] 0.189 | [9] 0.112 | [4] 0.073

PIGM (UniProt Q9H3S5)
inactive: [10] 0.075 | [7] -0.052 | [2] -0.054 | [9] 0.1 | [4] 0.089
